From patent US6984500B2, “Method for detecting microorganisms and detection kit” (priority 2001, dated 2006)

Experiments:
A. fumigatus ATCC 26430 [1] = assay: NCCLS M-38P turbidity method (0.2 mL micro broth dilution) antifungal susceptibility test; assay type: cell-based, Aspergillus Fumigatus; settings: repeated tests, determination time 46 to 50 hours
Experimental: (§1) Aspergillus Fumigatus ATCC26430 was used.
A comparative example was carried out according to NCCLS M-38P (0.2 mL culture system micro broth dilution method).

A. fumigatus ATCC 26430 [2] = assay: Colorimetric microplate drug susceptibility test (WST-8 coloring reagent, sucrose YN broth, NaOH sensitizing solution); assay type: cell-based, Aspergillus Fumigatus; settings: Colorimetry (present invention); 24 hours culture at 35° C.; absorbance at 630 nm; AMPH: absorbance equal to or less than negative control, ITCZ: IC80
Experimental: as §1
The drug solutions so prepared were pipetted into a plate at 0.02 mL/well and dried to a solid under reduced pressure for 24 hours. A coloring reagent (containing 0.7 mmol/L WST-8, 0.0035 mmol/L 1-methoxy PMS, 0.5 mmol/L potassium ferricyanide, and 0.5 mmol/L of potassium ferrocyanide) was pipetted into each of the wells at 0.02 mL/well and they were again dried to a solid under reduced pressure for 24 hours.
6.7 g of YN Base (manufactured by Difco) and 20 g of sucrose were dissolved in about 900 mL of purified water, and the pH was adjusted to 7.0 with a 1N aqueous solution of sodium hydroxide. The solution was made up to 1000 mL with purified water and then filter sterilized using a 0.2 μm filter.
A tester strain was cultured using Sabouraud Dextrose Agar (manufactured by OXOID) at 35° C. for 7 days. 2 mL of sterile physiological saline containing 0.1% Tween 80 was added dropwise onto the culture medium so as to float spores. […] Dilution was carried out so that the absorbance at 530 nm was 0.09 to 0.11. […]
After 24 hours 0.02 mL of a 1.5 mol/L aqueous solution of sodium hydroxide was added to each well, and 5 minutes after the addition the absorbance at 630 nm was measured.
2. For ITCZ, the 80% inhibitory concentration (IC80) was determined.

SMILES: C[C@@H]1[C@H](O)[C@@H](C)/C=C/C=C/C=C/C=C/C=C/C=C/C=C/[C@H](O[C@@H]2O[C@H](C)[C@@H](O)[C@H](N)[C@@H]2O)C[C@@H]2O[C@](O)(C[C@@H](O)C[C@@H](O)[C@H](O)CC[C@@H](O)C[C@@H](O)CC(=O)O[C@H]1C)C[C@H](O)[C@H]2C(=O)O [AMPH, Amphotericin B]
- MIC (A. fumigatus ATCC 26430 [1]): 0.5 to 2.0 µg/mL
- MIC (A. fumigatus ATCC 26430 [2]): 0.5 to 1.0 µg/mL
